In the supplement of paper PMC4604168 (melanoma cell lines):
The list shows a part of the results. Many values rest on one well or one pass, so single values are uncertain.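 Cells were imaged in 1,536-well plates, and nuclei stained with an antibody against cleaved PARP were counted against all DNA-stained nuclei to give the apoptosis fraction. Screening doses were chosen to leave most cells alive, and resting and induced cleaved-PARP levels differ strongly between cell lines.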

Columns and labels:
Experiment in all cases: cleaved PARP positive nuclei fraction relative to DMSO control; melanoma cells; higher = more apoptosis
Conditions in all cases: library dose: low library concentration; 72 h
MZ2-MEL = test system: MZ2-MEL
MeWo = test system: MeWo
RPMI7951 = test system: RPMI7951
RVH-421 = test system: RVH-421
SkMel28 = test system: SkMel28
SkMel2 = test system: SkMel2
SkMel30 = test system: SkMel30
SkMel5 = test system: SkMel5
UACC257 = test system: UACC257
UACC62 = test system: UACC62

For `CC(=O)c1c(C)c2cnc(Nc3ccc(N4CCNCC4)cn3)nc2n(C2CCCC2)c1=O` [palbociclib] + O=C(Nc1cccc(Cl)c1)Nc1ncc(CCNc2ncnc3ccsc23)s1 [SNS314] (first compound 0.04 µM, partner dose 0.0008 µM), the “cleaved PARP positive nuclei fraction” value (MZ2-MEL) was 41.9%, the “cleaved PARP positive nuclei fraction” value (MeWo) was 130% and the “cleaved PARP positive nuclei fraction” value (RPMI7951) was 61.6%. For the same molecule, the “cleaved PARP positive nuclei fraction” value (RVH-421) was 264%, the “cleaved PARP positive nuclei fraction” value (SkMel28) was 68.2% and the “cleaved PARP positive nuclei fraction” value (SkMel2) was 27.7%. The “cleaved PARP positive nuclei fraction” value (SkMel30) was 70.4%, the “cleaved PARP positive nuclei fraction” value (SkMel5) was 61% and the “cleaved PARP positive nuclei fraction” value (UACC257) was 171%. For the same molecule, the “cleaved PARP positive nuclei fraction” value (UACC62) was 109%.

`C=CCNC1=C2C[C@@H](C)C[C@H](OC)[C@H](O)[C@@H](C)/C=C(\C)[C@H](OC(N)=O)[C@@H](OC)/C=C\C=C(/C)C(=O)NC(=CC1=O)C2=O` [Tanespimycin] + CCCCCCCCCCCC1=C(O)C(=O)C=C(O)C1=O [Embelin] (first compound 0.002 µM, partner dose 1.2 µM) was tested, and the “cleaved PARP positive nuclei fraction” value (MZ2-MEL) was 78.5%, the “cleaved PARP positive nuclei fraction” value (MeWo) was 126% and the “cleaved PARP positive nuclei fraction” value (RPMI7951) was 187%. For the same molecule, the “cleaved PARP positive nuclei fraction” value (RVH-421) was 92.8%, the “cleaved PARP positive nuclei fraction” value (SkMel28) was 153% and the “cleaved PARP positive nuclei fraction” value (SkMel2) was 76.5%. For the same molecule, the “cleaved PARP positive nuclei fraction” value (SkMel30) was 1300%, the “cleaved PARP positive nuclei fraction” value (SkMel5) was 77.1% and the “cleaved PARP positive nuclei fraction” value (UACC257) was 25.6%. The “cleaved PARP positive nuclei fraction” value (UACC62) was 60.5%.

In the case of `CC(=O)c1c(C)c2cnc(Nc3ccc(N4CCNCC4)cn3)nc2n(C2CCCC2)c1=O` [palbociclib] + COc1cc(N2CCC(N3CCN(C)CC3)CC2)ccc1Nc1ncc(Cl)c(Nc2ccccc2S(=O)(=O)C(C)C)n1 [NVP-TAE684] (first compound 0.04 µM, partner dose 0.08 µM), the “cleaved PARP positive nuclei fraction” value (MZ2-MEL) is reported as 75.6%, the “cleaved PARP positive nuclei fraction” value (MeWo) is reported as 43.8% and the “cleaved PARP positive nuclei fraction” value (RPMI7951) is reported as 57.8%. The “cleaved PARP positive nuclei fraction” value (RVH-421) was 130%, the “cleaved PARP positive nuclei fraction” value (SkMel28) was 210% and the “cleaved PARP positive nuclei fraction” value (SkMel2) was 124%. The “cleaved PARP positive nuclei fraction” value (SkMel30) was 105%, the “cleaved PARP positive nuclei fraction” value (SkMel5) was 103% and the “cleaved PARP positive nuclei fraction” value (UACC257) was 143%. The “cleaved PARP positive nuclei fraction” value (UACC62) was 120%.

With `CC(C)(C)c1cnc(CSc2cnc(NC(=O)C3CCNCC3)s2)o1` + O=C(O)c1ccc(-c2c[nH]c3ncc(-c4ccccc4)cc23)cc1C1CCCC1 [GSK650394] (first compound 0.01 µM, partner dose 0.16 µM) the “cleaved PARP positive nuclei fraction” value (MZ2-MEL) was 69.9%, the “cleaved PARP positive nuclei fraction” value (MeWo) was 76.3% and the “cleaved PARP positive nuclei fraction” value (RPMI7951) was 63.2%. The “cleaved PARP positive nuclei fraction” value (RVH-421) was 74.3%, the “cleaved PARP positive nuclei fraction” value (SkMel28) was 427% and the “cleaved PARP positive nuclei fraction” value (SkMel2) was 121%. The “cleaved PARP positive nuclei fraction” value (SkMel30) was 69.3%, the “cleaved PARP positive nuclei fraction” value (SkMel5) was 62.9% and the “cleaved PARP positive nuclei fraction” value (UACC257) was 142%. For the same molecule, the “cleaved PARP positive nuclei fraction” value (UACC62) was 81.8%.

For `O=C(CCCCCCC(=O)Nc1ccccc1)NO` [vorinostat] + O=C(Nc1cccc(Cl)c1)Nc1ncc(CCNc2ncnc3ccsc23)s1 [SNS314] (first compound 0.08 µM, partner dose 0.0008 µM), the “cleaved PARP positive nuclei fraction” value (MZ2-MEL) was 207%, the “cleaved PARP positive nuclei fraction” value (MeWo) was 103% and the “cleaved PARP positive nuclei fraction” value (RPMI7951) was 105%. The “cleaved PARP positive nuclei fraction” value (RVH-421) was 55%, the “cleaved PARP positive nuclei fraction” value (SkMel28) was 34.8% and the “cleaved PARP positive nuclei fraction” value (SkMel2) was 57.6%. For the same molecule, the “cleaved PARP positive nuclei fraction” value (SkMel30) was 58.4%, the “cleaved PARP positive nuclei fraction” value (SkMel5) was 72.4% and the “cleaved PARP positive nuclei fraction” value (UACC257) was 164%. The “cleaved PARP positive nuclei fraction” value (UACC62) was 79.9%.

With `OCc1c[nH]c2ccccc12` [Indole-3-carbinol] + COc1ccc(-c2ccc3c(N4CCOCC4)nc(N4C[C@@H](C)O[C@@H](C)C4)nc3n2)cc1CO [KU0063794] (first compound 0.8 µM, partner dose 0.02 µM) the “cleaved PARP positive nuclei fraction” value (MZ2-MEL) was 65.9%, the “cleaved PARP positive nuclei fraction” value (MeWo) was 98.2% and the “cleaved PARP positive nuclei fraction” value (RPMI7951) was 151%. The “cleaved PARP positive nuclei fraction” value (RVH-421) was 237%, the “cleaved PARP positive nuclei fraction” value (SkMel28) was 147% and the “cleaved PARP positive nuclei fraction” value (SkMel2) was 69.7%. For the same molecule, the “cleaved PARP positive nuclei fraction” value (SkMel30) was 68.6%, the “cleaved PARP positive nuclei fraction” value (SkMel5) was 156% and the “cleaved PARP positive nuclei fraction” value (UACC257) was 235%. For the same molecule, the “cleaved PARP positive nuclei fraction” value (UACC62) was 136%.

For `OCc1c[nH]c2ccccc12` [Indole-3-carbinol] + Cn1cc(/C=C2\C(=O)Nc3cccnc32)c2ccccc21 [GW441756] (first compound 0.8 µM, partner dose 0.4 µM), the “cleaved PARP positive nuclei fraction” value (MZ2-MEL) was 27.4%, the “cleaved PARP positive nuclei fraction” value (MeWo) was 158% and the “cleaved PARP positive nuclei fraction” value (RPMI7951) was 70.4%. For the same molecule, the “cleaved PARP positive nuclei fraction” value (RVH-421) was 39.5%, the “cleaved PARP positive nuclei fraction” value (SkMel28) was 190% and the “cleaved PARP positive nuclei fraction” value (SkMel2) was 35.1%. The “cleaved PARP positive nuclei fraction” value (SkMel30) was 45.8%, the “cleaved PARP positive nuclei fraction” value (SkMel5) was 86.8% and the “cleaved PARP positive nuclei fraction” value (UACC257) was 115%. For the same molecule, the “cleaved PARP positive nuclei fraction” value (UACC62) was 88.6%.

`C=CCNC1=C2C[C@@H](C)C[C@H](OC)[C@H](O)[C@@H](C)/C=C(\C)[C@H](OC(N)=O)[C@@H](OC)/C=C\C=C(/C)C(=O)NC(=CC1=O)C2=O` [Tanespimycin] + O=c1cc(-c2cccc3c2Sc2ccccc2S3)oc(N2CCOCC2)c1 [KU55933] (first compound 0.002 µM, partner dose 1 µM) was tested, and the “cleaved PARP positive nuclei fraction” value (MZ2-MEL) was 185%, the “cleaved PARP positive nuclei fraction” value (MeWo) was 55.7% and the “cleaved PARP positive nuclei fraction” value (RPMI7951) was 347%. For the same molecule, the “cleaved PARP positive nuclei fraction” value (RVH-421) was 130%, the “cleaved PARP positive nuclei fraction” value (SkMel28) was 153% and the “cleaved PARP positive nuclei fraction” value (SkMel2) was 102%. The “cleaved PARP positive nuclei fraction” value (SkMel30) was 83.5%, the “cleaved PARP positive nuclei fraction” value (SkMel5) was 141% and the “cleaved PARP positive nuclei fraction” value (UACC257) was 53.1%. The “cleaved PARP positive nuclei fraction” value (UACC62) was 137%.

With `C[C@@H]1CCN(C(=O)CC#N)C[C@@H]1N(C)c1ncnc2[nH]ccc12` + COc1cc2c(Oc3ccc4[nH]c(C)cc4c3F)ncnc2cc1OCCCN1CCCC1 [cediranib] (first compound 1 µM, partner dose 0.4 µM) the “cleaved PARP positive nuclei fraction” value (MZ2-MEL) was 145%, the “cleaved PARP positive nuclei fraction” value (MeWo) was 88.9% and the “cleaved PARP positive nuclei fraction” value (RPMI7951) was 73.1%. For the same molecule, the “cleaved PARP positive nuclei fraction” value (RVH-421) was 57.4%, the “cleaved PARP positive nuclei fraction” value (SkMel28) was 31.9% and the “cleaved PARP positive nuclei fraction” value (SkMel2) was 103%. For the same molecule, the “cleaved PARP positive nuclei fraction” value (SkMel30) was 90.1%, the “cleaved PARP positive nuclei fraction” value (SkMel5) was 33.1% and the “cleaved PARP positive nuclei fraction” value (UACC257) was 257%. For the same molecule, the “cleaved PARP positive nuclei fraction” value (UACC62) was 273%.

`OCc1c[nH]c2ccccc12` [Indole-3-carbinol] + Oc1nc(-c2ccc(C(F)(F)F)cc2)nc2c1CSCC2 [XAV939] (first compound 0.8 µM, partner dose 2 µM) was tested, and the “cleaved PARP positive nuclei fraction” value (MZ2-MEL) was 201%, the “cleaved PARP positive nuclei fraction” value (MeWo) was 67.5% and the “cleaved PARP positive nuclei fraction” value (RPMI7951) was 119%. For the same molecule, the “cleaved PARP positive nuclei fraction” value (RVH-421) was 112%, the “cleaved PARP positive nuclei fraction” value (SkMel28) was 113% and the “cleaved PARP positive nuclei fraction” value (SkMel2) was 51.3%. For the same molecule, the “cleaved PARP positive nuclei fraction” value (SkMel30) was 115%, the “cleaved PARP positive nuclei fraction” value (SkMel5) was 133% and the “cleaved PARP positive nuclei fraction” value (UACC257) was 367%. The “cleaved PARP positive nuclei fraction” value (UACC62) was 88.1%.

With `C[C@]1(c2nc3c(C(N)=O)cccc3[nH]2)CCCN1` [Veliparib] + C[C@@H]1CCN(C(=O)CC#N)C[C@@H]1N(C)c1ncnc2[nH]ccc12 [CP690550] (first compound 1.4 µM, partner dose 1 µM) the “cleaved PARP positive nuclei fraction” value (MZ2-MEL) was 108%, the “cleaved PARP positive nuclei fraction” value (MeWo) was 87.4% and the “cleaved PARP positive nuclei fraction” value (RPMI7951) was 134%. The “cleaved PARP positive nuclei fraction” value (RVH-421) was 134%, the “cleaved PARP positive nuclei fraction” value (SkMel28) was 45.4% and the “cleaved PARP positive nuclei fraction” value (SkMel2) was 65.2%. For the same molecule, the “cleaved PARP positive nuclei fraction” value (SkMel30) was 72.7%, the “cleaved PARP positive nuclei fraction” value (SkMel5) was 60.6% and the “cleaved PARP positive nuclei fraction” value (UACC257) was 189%. For the same molecule, the “cleaved PARP positive nuclei fraction” value (UACC62) was 568%.

For `C#Cc1cccc(Nc2ncnc3cc(OCCOC)c(OCCOC)cc23)c1` [erlotinib] + COc1cc(Nc2ncc(F)c(Nc3ccc4c(n3)NC(=O)C(C)(C)O4)n2)cc(OC)c1OC [Tamatinib] (first compound 0.8 µM, partner dose 0.4 µM), the “cleaved PARP positive nuclei fraction” value (MZ2-MEL) was 47.1%, the “cleaved PARP positive nuclei fraction” value (MeWo) was 96.7% and the “cleaved PARP positive nuclei fraction” value (RPMI7951) was 54.1%. For the same molecule, the “cleaved PARP positive nuclei fraction” value (RVH-421) was 127%, the “cleaved PARP positive nuclei fraction” value (SkMel28) was 70.1% and the “cleaved PARP positive nuclei fraction” value (SkMel2) was 13%. The “cleaved PARP positive nuclei fraction” value (SkMel30) was 68.8%, the “cleaved PARP positive nuclei fraction” value (SkMel5) was 197% and the “cleaved PARP positive nuclei fraction” value (UACC257) was 77.9%. The “cleaved PARP positive nuclei fraction” value (UACC62) was 109%.
